PubChem BioAssay AID686937 | Drosophila RNAi Screening Center – 2013

Aim: 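Genes in the fly needed for secretion of protein constitutively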 (primary screen)
Cells: Drosophila S2 cells expressing secreted horseradish peroxidase
Reagents: long dsRNA against Drosophila genes
Time to read-out: about 5.5 days (5 days dsRNA, then 12 h reporter induction)
Treatment: reporter expression induced after 5 days of dsRNA, read 12 h later; inducer not stated
Measured: 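Chemiluminescent measurement of peroxidase in the medium 12 h after reporter induction, following 5 days of dsRNA, given as a z-score per plate; higher means more secretion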
Scale: z-score: higher = more reporter secreted into medium
The screen tested about 23,000 reagents; shown is an unselected part of those that have a named target and a result. 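Reduced-secretion tags in replicate 1 do not always agree with the z-scores; no criterion for assigning the tags was given.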 A plus sign joins genes that one reagent is predicted to hit. Further read-outs or replicates are left out here. Reagent sequences are not shown. Not stated in the record: the amount of reagent.

Knock-down of CG7550 [DRSC10875] came out at: z-score, replicate 1 = 0.49.
Against CG4576 [DRSC15604] the deposit lists z-score, replicate 1 = -0.34.
For hh (hedgehog) [DRSC16965] the deposit lists z-score, replicate 1 = 0.58.
For CG7131 [DRSC16203], the entry reads z-score, replicate 1 = 0.12.
Silencing of CG18428 [DRSC15326] resulted in: z-score, replicate 1 = 0.33.
Bet5 (Blocked early in transport 5) [DRSC14600] showed z-score, replicate 1 = -1.62; phenotype, replicate 1 = reduced secretion.
CG17191 [DRSC15185] showed z-score, replicate 1 = 0.3.
For VGlut (Vesicular glutamate transporter) [DRSC00733] the deposit lists z-score, replicate 1 = 0.54.
For VGlut (Vesicular glutamate transporter) [DRSC21821], the values are z-score, replicate 1 = -0.91.
Depletion of Aatf (Apoptosis antagonizing transcription factor) [DRSC02131] gave: z-score, replicate 1 = -0.29.
Depletion of mAChR-C (muscarinic Acetylcholine Receptor, C-type) [DRSC17890] came out at: z-score, replicate 1 = 0.2.
Silencing of Ankrd49 [DRSC01894] gave: z-score, replicate 1 = 0.27.
Knock-down of Ns3 (Nucleostemin 3) [DRSC18607] resulted in: z-score, replicate 1 = -1.01; phenotype, replicate 1 = reduced secretion.
Knock-down of Tollo [DRSC11305] gave: z-score, replicate 1 = 0.35.
CG10332 (retired record) + IM18 [DRSC04064] gave z-score, replicate 1 = 0.03.

Single entries from above:
Value of CG10332 (retired record) + IM18 [DRSC04064] under “z-score, replicate 1”: 0.03
Entry of CG18428 [DRSC15326] in “z-score, replicate 1”: 0.33
For “phenotype, replicate 1”, Ns3 (Nucleostemin 3) [DRSC18607] is entered as reduced secretion

Continued.
After knock-down of CG9021 [DRSC03128] the results were z-score, replicate 1 = 0.22.
With knock-down of Adck1 (aarF domain containing kinase 1) [DRSC04394], the screen gave z-score, replicate 1 = 0.24.
Depletion of CG12868 [DRSC06207] gave: z-score, replicate 1 = 0.27.
Knock-down of CG6441 [DRSC02957] gave: z-score, replicate 1 = 0.36.
sbb (scribbler) [DRSC05723] gave z-score, replicate 1 = 0.25.
Against sbb (scribbler) [DRSC07676] the deposit lists z-score, replicate 1 = 0.44.
Depletion of CG33702 [DRSC08986] came out at: z-score, replicate 1 = 0.29.
CG14777 [DRSC18563] gave z-score, replicate 1 = 0.18.
Against CG32537 [DRSC20073], the values are z-score, replicate 1 = 0.31.
Silencing of CG6709 + Hez [DRSC10165] resulted in: z-score, replicate 1 = 0.3.
After knock-down of CG6709 + Hez [DRSC10698], the screen gave z-score, replicate 1 = 0.48.
Silencing of Nubpl (NUBP iron-sulfur cluster assembly factor, mitochondrial) [DRSC03725] resulted in: z-score, replicate 1 = 0.34.
With knock-down of TfIIA-S-2 [DRSC17791], the record shows z-score, replicate 1 = 0.3.
For CG14086 [DRSC10090] the deposit lists z-score, replicate 1 = 0.3.
With knock-down of Cftr (CF transmembrane conductance regulator) [DRSC15872], the screen gave z-score, replicate 1 = 0.29.
After knock-down of RpS18 (Ribosomal protein S18) [DRSC07540], the record shows z-score, replicate 1 = -3.82; phenotype, replicate 1 = reduced secretion.
Silencing of Tes (Testin) [DRSC06996] gave: z-score, replicate 1 = 0.08.
With knock-down of clos (closca) [DRSC06240], the screen gave z-score, replicate 1 = 0.23.
For clos (closca) [DRSC06241] the deposit lists z-score, replicate 1 = 0.23.
Against clos (closca) [DRSC06778], the entry reads z-score, replicate 1 = 0.04.
clos (closca) [DRSC21857] scored z-score, replicate 1 = 0.32.
For clos (closca) [DRSC22942], the entry reads z-score, replicate 1 = -1.32.
Depletion of Sym (Symplekin) [DRSC12301] resulted in: z-score, replicate 1 = -2.27; phenotype, replicate 1 = reduced secretion.
Skel (Skeletor) [DRSC14905] showed z-score, replicate 1 = 0.34.
After knock-down of Skel (Skeletor) [DRSC14906], the screen gave z-score, replicate 1 = 0.48.
